PubChem BioAssay AID540256 (National Center for Advancing Translational Sciences (NCATS), 2011)
About 3,700 (1.2%) of roughly 300,000 compounds were called active. Inconclusive means that the source gave no clear call. Such entries were picked first, then a sample of the others. Calls come from the whole dose curve; tested in HEK293 cells. Potencies of inconclusive entries are doubtful fits and often do not repeat.

Assay: qHTS for Inhibitors of binding or entry into cells for Lassa Virus; note: nearly all actives have a fitted effect of over 50% in size
Conditions: Lassa virus pseudotype entry inhibition, cell reporter; activity change, negative = inhibition: at 37.9 µM (top of the series) unless noted
% is set by controls: 0 for no effect and ±100 for the full control effect; potency is the fitted concentration of half-maximal effect.

Compound | activity change, negative = inhibition | Potency
O=C(NCCCn1ncc2ccccc21)c1cc(COc2c(F)cccc2F)on1 | inactive: -22.6% [at 46.1 µM] | 
CCOC(=O)c1cc(-c2ccc(F)cc2)n(CC(=O)NC2CCCCC2)c1C |  | inconclusive: 4.47 µM [activator, partial curve, poor fit]
COc1ccc(C(c2nnnn2Cc2ccccc2)N2CCN(c3nc4ccccc4s3)CC2)cc1OC (stereo unspecified) |  | inconclusive: 10 µM [inhibitor, partial curve]
COc1cccc(NC(=O)C2C3C=CC4(O3)C2C(=O)N(C2CC2)C4C(=O)NC2CCCCC2C)c1 (stereo unspecified) |  | inconclusive: 0.501 µM [activator, full curve, poor fit]
O=c1oc2ccccc2n1CCn1c2ccccc2c2nc3ccccc3nc21 |  | inconclusive: 14.1 µM [inhibitor, single point]
O=C(Cc1cccs1)NC1CC(=O)N(c2ccccc2)C1 (stereo unspecified) |  | inconclusive: 8.91 µM [activator, partial curve, poor fit]
Cc1ccc(C)c(NC(=O)c2cc(-c3ccccc3O)n[nH]2)c1 | inactive: 1.1% [at 46.1 µM] | 
CC(=O)NCCOc1nc(N(C)C)nc(N(C)C)n1 |  | inconclusive: 16.4 µM [activator, single point]
CCC/C=N/NC(=O)c1[nH]c2c([N+](=O)[O-])cccc2c1C |  | inconclusive: 5.01 µM [inhibitor, full curve, poor fit]
CCN(CC)c1ccc2cc(-c3nnc(-c4ccncc4)o3)c(=O)oc2c1 | inactive: 4.54% | 
CCN(CC)CCNC(=O)C1CCN(S(=O)(=O)c2c(C)noc2/C=C/c2ccccc2F)CC1 |  | inconclusive: 35.5 µM [inhibitor, single point]
O=C(O)c1cccc(Cn2cc(Cl)cn2)c1 | inactive: 13.2% | 
CCN(CC)CCOC(=O)c1cc(Cl)c(N)cc1OC |  | inconclusive: 0.82 µM [activator, full curve, poor fit]
CCOc1ccc(NC(=O)OCCN2CCN(CCc3ccccc3)C(C)C2)cc1 (stereo unspecified) |  | inconclusive: 35.5 µM [inhibitor, single point]
COc1ccc(-n2c(/C=C/c3cc(OC)c(OC)cc3OC)nc3cc4ccccc4cc3c2=O)cc1Cl | inactive: 14.2% [at 46.1 µM] | 
COc1ccc(-c2oc(NC(=O)CSc3ncn[nH]3)c(C#N)c2-c2ccc(OC)cc2)cc1 | inactive: -24.9% | 
COC1=C(Br)C(=O)c2ncccc2C1=O |  | inconclusive: 35.5 µM [inhibitor, single point]
O=C(COc1ccccc1)Nc1ccc(C(=O)OCc2cc(=O)n3nc(C4CC4)sc3n2)cc1 |  | inconclusive: 0.891 µM [activator, full curve, poor fit]
Cc1oc2ccc(OC(=O)N(C)C)cc2c1C(=O)OC(C)C |  | inconclusive: 14.6 µM [inhibitor, partial curve]
CC(C)(C)c1ccc(S(=O)(=O)CCc2ccccn2)cc1 |  | inconclusive: 2.51 µM [activator, partial curve, poor fit]
O=C(NN=C1CCCC1)c1cc(-c2ccc(F)cc2)nc2ccccc12 |  | inconclusive: 8.91 µM [inhibitor, partial curve, poor fit]
CCCCOc1ccc(-c2cc(C(=O)NNC(=S)NCC)c3ccccc3n2)cc1 |  | inconclusive: 3.66 µM [inhibitor, full curve, poor fit]

Taken from above.
COc1cccc(NC(=O)C2C3C=CC4(O3)C2C(=O)N(C2CC2)C4C(=O)NC2CCCCC2C)c1 (stereo unspecified) – Potency: inconclusive: 0.501 µM [activator, full curve, poor fit]
O=C(Cc1cccs1)NC1CC(=O)N(c2ccccc2)C1 (stereo unspecified) – Potency: inconclusive: 8.91 µM [activator, partial curve, poor fit]
O=C(NCCCn1ncc2ccccc21)c1cc(COc2c(F)cccc2F)on1 – activity change, negative = inhibition: inactive: -22.6% [at 46.1 µM]

(cont.)

Compound | activity change, negative = inhibition | Potency
Cc1ccc(S(=O)(=O)CCC(=O)N(CCCN2CCOCC2)c2nc3ccccc3s2)cc1 |  | inconclusive: 25.1 µM [inhibitor, single point]
O=C(CNC(=O)c1ccccc1F)OCC(=O)N1CCCc2ccccc21 |  | inconclusive: 12.6 µM [activator, single point]
CCOC(=O)C(O)(c1ccc(N(CC)S(=O)(=O)c2ccccc2)cc1)C(F)(F)F (stereo unspecified) |  | inconclusive: 11.2 µM [inhibitor, partial curve, poor fit]
C#CCNC(=O)C(C)c1ncc(C(F)(F)F)cc1Cl (stereo unspecified) | inactive: 2.35% | 
Cn1cccc1C(=O)NCc1ccccn1 | inactive: -4.34% | 
O=C(NNC(=O)c1ccc2ccccc2c1O)c1cccs1 |  | inconclusive: 10 µM [inhibitor, partial curve, poor fit]
O=C(CCSCCc1ccccn1)Nc1ccc(Cc2ccncc2)cc1 |  | inconclusive: 2.82 µM [activator, single point]
O=C1C2C3C=CC(C3)C2C(=O)N1CCC(=O)N1CCc2ccccc21 (stereo unspecified) |  | inconclusive: 7.3 µM [inhibitor, single point]
Cc1nn(-c2ccccc2)c(C)c1C(=O)OCC(=O)N1CCN(S(=O)(=O)c2ccccc2)CC1 | inactive: -3.89% | 
Cc1ccccc1CN1CCc2nc(Nc3ccc4c(c3)OCCO4)ncc2C1 |  | inconclusive: 28.2 µM [inhibitor, single point]
CCOc1ccc(CCNC(=O)c2ccc(CS(=O)(=O)Cc3ccccc3Cl)o2)cc1OCC |  | inconclusive: 11.2 µM [inhibitor, partial curve, poor fit]
O=C(NOC(=O)c1c(F)cccc1Cl)c1ccc(Cl)c(Cl)c1 |  | inconclusive: 3.98 µM [activator, full curve]
COc1ccc(C=NNC(=O)CCCCC(=O)NN=Cc2ccc(OC)cc2)cc1 |  | inconclusive: 2.51 µM [inhibitor, full curve, poor fit]
CC(C)(C)c1ccc(OCCC(=O)NC2=NCCS2)cc1 |  | inconclusive: 35.5 µM [activator, partial curve, poor fit]
CCOC(=O)c1c(-c2ccccc2)csc1/N=C/C1C(=O)CCCC1=O |  | inconclusive: 29.1 µM [inhibitor, partial curve, poor fit]
Oc1cccc2ccc(Nc3ccccn3)nc12 |  | active: 23.1 µM
CS(=O)(=O)N1CCN(c2ccc(NC(=S)NC(=O)c3cccs3)cc2)CC1 | inactive: 14.9% | 
O=C1CCCC2=C1C(c1ccco1)Nc1ccc(C(=O)c3ccccc3)cc1N2 (stereo unspecified) |  | inconclusive: 35.5 µM [inhibitor, single point]
Cc1ccc(C(=O)NCCc2ccc(F)cc2)s1 |  | inconclusive: 35.5 µM [inhibitor, single point]
Cc1cc(NC(=O)CS(=O)(=O)c2cn(Cc3ccccc3Cl)c3ccccc23)no1 |  | inconclusive: 14.6 µM [inhibitor, partial curve, poor fit]
CCOC(=O)C1CCN(S(=O)(=O)c2ccc(Br)c(OCC)c2)CC1 |  | inconclusive: 2 µM [inhibitor, partial curve, poor fit]
Cc1cc(C)cc(-n2c(SCC(=O)Nc3nnc(C)s3)nc3c([nH]c4ccccc43)c2=O)c1 |  | inconclusive: 3.98 µM [inhibitor, single point]

Compound | activity change, negative = inhibition | Potency
N#CC1=C(SCc2ccccc2)NC(=O)C(C#N)C12CCCC2 (stereo unspecified) |  | inconclusive: 17.8 µM [inhibitor, single point]
COc1cc2nc(SCC(N)=O)n(CCC3=CCCCC3)c(=O)c2cc1OC |  | inconclusive: 1.83 µM [activator, partial curve, poor fit]
CC1CCN(C(=O)COc2cccc3c2CCN(Cc2ccccc2)C3=O)CC1 |  | inconclusive: 35.5 µM [inhibitor, single point]
CCN(C(=O)CSc1nnc(NC2CCCCC2)s1)C1CCS(=O)(=O)C1 (stereo unspecified) |  | inconclusive: 20.6 µM [activator, single point]
CCCOc1ccc(Nc2nc(SC)ncc2C(=O)OCC)cc1 |  | inconclusive: 10 µM [activator, partial curve, poor fit]
COc1ccc(CN2COc3ccc4c(C)cc(=O)oc4c3C2)cc1 | inactive: 19.3% [at 46.1 µM] | 
CCN(c1ccccc1)S(=O)(=O)c1cc(NC(=O)COC(=O)C2CC2)ccc1Cl |  | inconclusive: 17.8 µM [inhibitor, partial curve, poor fit]
C=CCOC(=O)N1CCN(c2cccc(C(F)(F)F)c2)CC1 |  | inconclusive: 2.51 µM [inhibitor, full curve, poor fit]
COc1ccc(OCC(=O)Nc2ccccc2C(=O)NC(C)C)cc1 |  | inconclusive: 10 µM [inhibitor, partial curve]
Cc1cc(C)nc(SCC(=O)Nc2ncc(Cc3cccc(Cl)c3)s2)n1 |  | inconclusive: 10 µM [inhibitor, partial curve, poor fit]
CCCc1ccc2c(N)c(C#N)sc2n1 | inactive: -8.59% | 
CCc1ccc(OC(C)c2nnc(SCC(=O)Nc3ncccc3C)n2C)cc1 (stereo unspecified) |  | inconclusive: 20.6 µM [inhibitor, partial curve, poor fit]
CCCn1c(=O)c(C(=O)NCc2ccccc2Cl)c(O)c2ccccc21 |  | inconclusive: 12.6 µM [inhibitor, single point]
N#CCc1ccnc2ccccc12 | inactive: -1.37% [at 46.1 µM] | 
Cn1c(-c2ccc(-c3ccccc3)cc2)c[nH]c1=S |  | inconclusive: 15.8 µM [inhibitor, single point]
CCn1c(C)cc(C(=O)COC(=O)c2cccnc2SC)c1C |  | inconclusive: 35.5 µM [inhibitor, single point]
S=C(Nc1ccc(Oc2ccc(NC(=S)NC3CCCCC3)cc2)cc1)NC1CCCCC1 |  | inconclusive: 5.17 µM [inhibitor, full curve, poor fit]
CC(CCc1ccccc1)NC(=O)COC(=O)c1cc(NS(=O)(=O)c2ccc(Cl)c([N+](=O)[O-])c2)ccc1O (stereo unspecified) | inactive: -11.5% | 
O=S(=O)(NC1CC2CCC1C2)c1ccc(Br)cc1 (stereo unspecified) | inactive: 22.5% | 
COC(=O)c1sc(NC(=O)COc2ccccc2C)nc1C | inactive: -1.76% | 
CCOC(=O)C1=C(CN2CCN(c3ccccc3F)CC2)NC(=O)NC1c1ccc(OC)cc1 (stereo unspecified) |  | inconclusive: 7.08 µM [inhibitor, full curve, poor fit]
COc1cc(C(=O)CSc2nncn2C)cc(OC)c1OC |  | inconclusive: 35.5 µM [activator, partial curve, poor fit]
